In all, about 220,000 compounds went through this assay and about 2,400 (1.1%) were called active. This list was built around the results that the source calls inconclusive (neither active nor inactive); the mix of calls is not that of the screen. Calls come from the whole dose curve; as a rule, active = well fitted inhibition curve with a large enough effect; inconclusive = small, poorly fitted or top-dose-only effect, or effect the other way; inactive = no such curve, though single readings can be large or run the other way. Where the call is inconclusive, the potency comes from a doubtful curve fit.
Test: qHTS Multiplex Assay to Identify Dual Action Probes in a Cell Model of Huntington: Aggregate Formation (GFP); note: nearly all actives have a fitted effect of over 60% in size
Details: PC12 HttQ103-GFP aggregates, Acumen cytometry, 40 h; activity change, negative = inhibition: at 46.1 µM (top of the series) unless noted
Procedure, shortened: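 PC12 cells with ecdysone-inducible HTT exon1 Q103-GFP, induced by 100 nM tebufenozide, given compounds in a concentration series. GFP aggregates (1–25 um, 6 SD above background) counted in lysates by laser-scanning cytometry, 488 nm excitation.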
% is set by controls: 0 for no effect and ±100 for the full control effect; potency is the fitted concentration of half-maximal effect.

SMILES | Potency | activity change, negative = inhibition
O=C(CCl)N1CCN2C(=O)c3ccccc3C12c1ccc(Cl)cc1 (stereo not given) | inconclusive: 35.5 µM [inhibitor, single point] | 
FC(F)Sc1ccc(NC(=S)NCC2CCCCC2)cc1 | inconclusive: 35.5 µM [inhibitor, single point] | 
CC1CCCCC1NC(=S)Nc1ccc(Cl)cc1Cl (stereo not given) | inconclusive: 20 µM [inhibitor, single point] | 
CCOc1ccc2c(c1)OC(c1ccccc1)(C(F)(F)F)NC2=O (stereo not given) | inactive | 
COc1ccc(Cl)cc1N(C(C)C(=O)NC1CCCC1)S(C)(=O)=O (stereo not given) | inactive | 
CN1/C(=C\C=N\NC(=O)c2ccccc2Br)C(C)(C)c2ccccc21 | active: 11.2 µM | 
O=C(NC12CC3CC(CC(C3)C1)C2)c1cc2nc(-c3ccco3)cc(C(F)(F)F)n2n1 | inconclusive: 35.5 µM [inhibitor, single point] | 
O=C(O)C1(NS(=O)(=O)c2ccc(F)c(Cl)c2)CCCCC1 | inconclusive: 5.62 µM [inhibitor, single point] | 
CCCCN(C)S(=O)(=O)c1ccc(C(=O)Nc2nnc(CSC)o2)cc1 | active: 8.91 µM | 
Cn1c(=O)n(C)c2cc(/C=N/NC(=S)NCc3ccccc3)ccc21 | inconclusive: 14.1 µM [activator, partial curve] | 
S=C(Nc1ccc(Oc2ccccc2)cc1)NC1CCCCC1 | inconclusive: 35.5 µM [inhibitor, single point] | 
O=S(=O)(NCc1ccncc1)c1ccc(S(=O)(=O)NCC2CCCO2)cc1 (stereo not given) | inconclusive: 15.8 µM [inhibitor, partial curve] | 
COc1ccc(O)c(C(=O)CC(=O)c2ccc(F)cc2)c1 | inconclusive: 35.5 µM [inhibitor, single point] | 
O=C(Nc1nc2c(s1)CCc1ccccc1-2)c1cccs1 | inconclusive: 14.1 µM [inhibitor, single point] | 
CC1(C)C2CC=C(/C=N/NC(=O)c3ccccc3Br)C1C2 (stereo not given) | inactive | 
O=C(Nc1cccc(S(=O)(=O)N2CCCCC2)c1)c1ccc([N+](=O)[O-])o1 | inconclusive: 25.1 µM [inhibitor, single point] | 
Cc1ccccc1N1C(=O)CC(Sc2nnc(-c3ccccc3)o2)C1=O (stereo not given) | active: 22.4 µM | 
CCOC(=O)c1c(NC(=O)CC2SC(N)=NC2=O)sc2c1CCC(C)C2 (stereo not given) | inconclusive: 35.5 µM [activator, single point] | 
C[C@H]1CC[C@H]2C(=O)N3[C@H](c4ccccc4Br)[C@@H](C)CC[C@H]3C(=O)N2[C@@H]1c1ccccc1Br | inconclusive: 35.5 µM [inhibitor, single point] | 
O=C1C2ON(c3ccccc3)C(c3ccccc3F)C2C(=O)N1c1ccccc1 (stereo not given) | inactive | 
Cc1sc(NC(=O)c2ccccc2F)c(CN2CCCCC2)c1C | inconclusive: 3.98 µM [inhibitor, single point] | 
C=C(C)C(=O)OC1(C(F)(F)F)Oc2cc(C)ccc2NC1=O (stereo not given) | inconclusive: 35.5 µM [inhibitor, single point] | 
COc1cc(NC(=S)NC(=O)c2c(OC)cccc2OC)ccc1NC(=O)c1cccs1 | inactive | 
Cn1c(=O)cc(OCCCC(=O)Nc2ccccn2)c2ccccc21 | inconclusive: 10 µM [activator, partial curve] | 

SMILES | Potency | activity change, negative = inhibition
CC1=C(C)/C(=N\OS(=O)(=O)c2ccccc2)C=CC1=O | inconclusive: 35.5 µM [inhibitor, single point] | 
COc1ccc(C(=O)/C=C/c2ccc(O)cc2)c(O)c1CC=C(C)C | inactive | 
CCOc1ccc(NC(=O)CN2C(=O)NC(CCSC)C2=O)cc1 (stereo not given) | inconclusive: 3.16 µM [activator, partial curve] | 
Cc1[nH]nc2c1C(C(C)C)C(C#N)=C(N)O2 (stereo not given) | inconclusive: 11.2 µM [inhibitor, partial curve] | 
CCOC(=O)c1c(C)c(C(=O)N2CCc3ccccc3C2)c(C)n1CC | inactive | 
CCc1cc(-c2n[nH]c(=S)n2C(C)c2ccccc2)cs1 (stereo not given) | inconclusive: 35.5 µM [inhibitor, single point] | 
COc1ccccc1/C=C\C=N\n1c(-c2ccc(Cl)cc2Cl)n[nH]c1=S | inconclusive: 11.2 µM [activator, single point] | 
Cc1ccc2cc(CN(CC3CCCO3)C(=S)NCc3ccco3)c(=O)[nH]c2c1 (stereo not given) |  | inactive: 2.72% [at 9.22 µM]
O=C(Nc1ncn[nH]1)c1c(Cl)ccc(Cl)c1Cl | inconclusive: 7.94 µM [inhibitor, partial curve] | 
CCCCCCCCCCCCCCCC[N+](C)(C)Cc1ccccc1 | inconclusive: 31.6 µM [inhibitor, partial curve, poor fit] | 
C=CCn1c(=O)[nH]c2cc(C(=O)N3CCN(c4cccc(Cl)c4)CC3)ccc2c1=O | inconclusive: 15.8 µM [inhibitor, single point] | 
Nc1nn2c(-c3ccccc3)cc(=O)[nH]c2c1N=Nc1ccc(O)cc1 |  | inactive: 12.7% [at 9.22 µM]
Cc1cc(C)c(NS(=O)(=O)c2ccc(NC(=O)c3cccs3)cc2)c(C)c1 | inactive | 
O=c1c2c(nc3n1CCCCC3)sc1c(O)cccc12 | inconclusive: 25.1 µM [inhibitor, partial curve] | 
CCCOC(=S)N/C(=N\S(=O)(=O)c1ccccc1)c1ccccc1 | inconclusive: 5.62 µM [activator, single point] | 
CCSc1nnc(NC(=O)C(C)(C(F)(F)F)C(F)(F)F)s1 | active: 25.1 µM | 
COc1ccccc1C1C=C(c2ccc(C)cc2)Nc2nnnn21 (stereo not given) | inactive | 
Cc1ccc(NCC(=O)NNC2=NCCC2)c(C)c1 | inconclusive: 14.1 µM [activator, single point] | 
CN(C(=O)COc1ccccc1C(=O)NCCOc1ccccc1)c1ccccc1 | inconclusive: 15.8 µM [inhibitor, single point] | 
CCn1c(CSc2nccn2C)nc2cc(C(=O)O)ccc21 | inactive | 
CC1CC(=O)Nc2ccc([N+](=O)[O-])cc2N1C (stereo not given) | inactive | 
CCOc1ccc(S(=O)(=O)Nc2cccc(N(C)S(C)(=O)=O)c2)cc1 | inconclusive: 6.31 µM [inhibitor, full curve, poor fit] | 
Cc1cccc(N2C(=O)CC(SC(=Nc3ccccc3)Nc3ccccc3)C2=O)c1 (stereo not given) | active: 3.16 µM | 
Cc1c(C(=O)N(C)C)sc(NC(=O)c2cccc([N+](=O)[O-])c2)c1C#N | inactive | 

Filtered by structure: the compounds so far containing a COOH group (two)
SMILES | Potency | activity change, negative = inhibition
O=C(O)C1(NS(=O)(=O)c2ccc(F)c(Cl)c2)CCCCC1 | inconclusive: 5.62 µM [inhibitor, single point] | 
CCn1c(CSc2nccn2C)nc2cc(C(=O)O)ccc21 | inactive | 

Whole records, quoted from the list.
CCc1cc(-c2n[nH]c(=S)n2C(C)c2ccccc2)cs1 (stereo not given) is listed as Potency: inconclusive: 35.5 µM [inhibitor, single point]
C=CCn1c(=O)[nH]c2cc(C(=O)N3CCN(c4cccc(Cl)c4)CC3)ccc2c1=O is listed as Potency: inconclusive: 15.8 µM [inhibitor, single point]

Carrying on.

SMILES | Potency | activity change, negative = inhibition
COc1ccc(Cl)cc1Nc1nc(N2CCCC2)nc(N2CCCC2)n1 | inconclusive: 0.501 µM [activator, single point] | 
CCOC(=O)c1c(-c2ccccc2)csc1NC(=O)CSc1nnnn1C | inconclusive: 35.5 µM [inhibitor, single point] | 
CN(C)C(=O)N1CCN(C(=O)N2CCOCC2)CC1 | inactive | 
COc1cnc(-c2ccccn2)nc1Sc1ccc(F)cc1 | inconclusive: 35.5 µM [inhibitor, single point] | 
CCOC(=O)/C(=N/Nc1ccc(C)cc1)S(=O)(=O)c1ccc(Cl)cc1 | inactive | 
CCn1ncc(C2=NOC(C(=O)NCc3ccc(Cl)cc3)C2)c1C (stereo not given) | inconclusive: 14.1 µM [activator, single point] | 
COc1ccc(/C=C\C(=O)c2c(O)ccc3c(C)cc(=O)oc23)cc1 | inconclusive: 35.5 µM [inhibitor, single point] | 
CO/N=C/c1ccc(N2CCN(C(=O)c3cccc(C(F)(F)F)c3)CC2)c([N+](=O)[O-])c1 | inconclusive: 15.8 µM [inhibitor, single point] | 
CCn1nc(C)c(C2C(C#N)=C(N)OC3=C2C(=O)CCC3)c1C (stereo not given) | inconclusive: 35.5 µM [activator, single point] | 
COc1ccc(N2C(=O)[C@H]3[C@@H](C2=O)C2c4ccccc4C=NN2[C@H]3C(=O)C(C)(C)C)cc1 (stereo not given in full) |  | inactive: -13.7% [at 9.22 µM]
Cc1ccn2cc(CNS(=O)(=O)c3ccc(Cl)s3)nc2c1 | inconclusive: 8.91 µM [inhibitor, partial curve, poor fit] | 
C=CCc1c(C)nc(SC)nc1Nc1ccc(C(C)=O)cc1 | inconclusive: 35.5 µM [inhibitor, single point] | 
CC(CCc1ccccc1)NC(=O)CN1CCN(c2ccccc2)CC1 (stereo not given) | inconclusive: 31.6 µM [inhibitor, single point] | 
Cc1ccc(C)c(Cn2nnc3c(=O)[nH]c(C4CCN(C(=O)c5cccs5)CC4)nc32)c1 | inconclusive: 28.2 µM [inhibitor, single point] | 
C[n+]1ccccc1C1CCCC/C1=N\Nc1ccc([N+](=O)[O-])cc1[N+](=O)[O-] (stereo not given) | inconclusive: 5.62 µM [activator, single point] | 
CN(C)c1ccc(C(=S)NCc2ccco2)cc1 | inactive | 
Cc1ccc(NC(=O)CSc2nnc(C(F)(F)F)n2C)cc1[N+](=O)[O-] | inconclusive: 35.5 µM [activator, single point] | 
Clc1ccc(SCCCCN2CCOCC2)cc1 | inactive | 
O=C(NCCc1cn2ccccc2n1)c1cc(COc2c(F)cccc2F)on1 | inconclusive: 5.62 µM [activator, single point] | 
CC(C)CNC(=O)CSc1nc(-c2cccs2)cc(C(F)(F)F)n1 | inconclusive: 0.891 µM [inhibitor, single point] | 
CC1CCN(c2[nH]c(=S)c(C#N)c3c2CCCC3)CC1 | inconclusive: 5.62 µM [activator, single point] | 
Cc1cccc(N2CCN(C(=O)CS(=O)(=O)Cc3nc(-c4ccccc4F)oc3C)CC2C)c1 (stereo not given) | inconclusive: 11.2 µM [inhibitor, single point] | 

Reference: PubChem BioAssay AID1688 (National Center for Advancing Translational Sciences (NCATS), 2009)
